Source: patent US20100256056A1 (published 2010)

Experiment: general procedure: Boc solid-phase peptide synthesis; 4-Methylbenzhydrylamine (MBHA) resin (Peninsula), 0.91 mmol/g; HBTU/DIEA
Settings: whole synthesis, analytical HPLC, scale of the general procedure 0.20 mmol

## (Aib^2, Nle^14, β-Ala^29) Exendin-4(1-39)NH2
  final purity (method not given): 98.0%
